Source: article PMC9312491
Results are given in words; binding and its absence hold for the method and conditions named. In cells and extracts the contact can be indirect. Binding can be weak; no strength is given. Sequences can lack the tags named with a protein.

Target: T1, HA-APE2 (UniProt Q9UBZ4)
T1 sequence: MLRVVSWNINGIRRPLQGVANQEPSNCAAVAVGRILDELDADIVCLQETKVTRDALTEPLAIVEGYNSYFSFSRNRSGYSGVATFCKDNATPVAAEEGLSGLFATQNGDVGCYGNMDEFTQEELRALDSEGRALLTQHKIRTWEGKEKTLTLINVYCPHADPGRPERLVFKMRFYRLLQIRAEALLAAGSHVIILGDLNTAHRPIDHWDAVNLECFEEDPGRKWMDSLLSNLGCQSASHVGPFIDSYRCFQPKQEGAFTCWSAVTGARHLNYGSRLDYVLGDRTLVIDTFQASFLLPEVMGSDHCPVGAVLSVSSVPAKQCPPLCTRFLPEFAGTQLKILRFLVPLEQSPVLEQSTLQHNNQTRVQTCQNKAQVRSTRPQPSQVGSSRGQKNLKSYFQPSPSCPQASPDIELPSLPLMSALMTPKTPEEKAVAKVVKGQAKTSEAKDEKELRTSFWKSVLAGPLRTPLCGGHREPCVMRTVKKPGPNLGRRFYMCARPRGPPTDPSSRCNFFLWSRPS
Experiment: co-IP; lysate (M-PER) of transfected HEK293 cells, 48 h after transfection; HA-APE2 held on anti-HA magnetic beads, 30 °C for 30 min; partners found by Western blot

Row | Substance | binding
1 | Hsp70 (human (endogenous in HEK293)) | binds
2 | Hsp90 (human (endogenous in HEK293)) | binds
